# The list shows a part of the results.
# Protein sequences, listed by entry. Tags and fused reporters are not part of them. Lines headed by an entry give the natural chain unless they say otherwise; changes in a name come on top.
# UniProt Q9BUR4: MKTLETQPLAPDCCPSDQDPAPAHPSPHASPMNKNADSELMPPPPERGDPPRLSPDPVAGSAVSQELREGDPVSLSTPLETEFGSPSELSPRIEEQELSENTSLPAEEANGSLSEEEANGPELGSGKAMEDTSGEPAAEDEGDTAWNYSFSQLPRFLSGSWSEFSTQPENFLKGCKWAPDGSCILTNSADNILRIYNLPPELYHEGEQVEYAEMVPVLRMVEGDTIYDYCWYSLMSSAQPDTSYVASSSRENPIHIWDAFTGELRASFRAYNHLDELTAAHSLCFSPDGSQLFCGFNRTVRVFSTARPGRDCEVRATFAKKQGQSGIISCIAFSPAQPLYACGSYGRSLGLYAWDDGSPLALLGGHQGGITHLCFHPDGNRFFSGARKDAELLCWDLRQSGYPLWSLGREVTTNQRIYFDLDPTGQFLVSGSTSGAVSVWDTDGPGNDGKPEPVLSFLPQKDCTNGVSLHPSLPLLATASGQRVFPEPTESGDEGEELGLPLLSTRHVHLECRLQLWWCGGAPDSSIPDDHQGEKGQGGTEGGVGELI
# UniProt Q86VN1: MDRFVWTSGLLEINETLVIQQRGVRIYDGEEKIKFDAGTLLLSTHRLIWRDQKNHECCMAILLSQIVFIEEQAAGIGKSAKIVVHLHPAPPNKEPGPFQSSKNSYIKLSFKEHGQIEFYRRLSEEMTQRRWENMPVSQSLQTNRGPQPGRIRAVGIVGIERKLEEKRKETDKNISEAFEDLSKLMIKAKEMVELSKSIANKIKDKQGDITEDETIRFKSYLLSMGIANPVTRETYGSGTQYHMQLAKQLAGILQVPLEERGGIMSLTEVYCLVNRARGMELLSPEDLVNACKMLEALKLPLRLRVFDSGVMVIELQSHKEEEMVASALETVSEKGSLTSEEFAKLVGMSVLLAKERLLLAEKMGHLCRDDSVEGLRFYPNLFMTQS
# UniProt Q9H9H4: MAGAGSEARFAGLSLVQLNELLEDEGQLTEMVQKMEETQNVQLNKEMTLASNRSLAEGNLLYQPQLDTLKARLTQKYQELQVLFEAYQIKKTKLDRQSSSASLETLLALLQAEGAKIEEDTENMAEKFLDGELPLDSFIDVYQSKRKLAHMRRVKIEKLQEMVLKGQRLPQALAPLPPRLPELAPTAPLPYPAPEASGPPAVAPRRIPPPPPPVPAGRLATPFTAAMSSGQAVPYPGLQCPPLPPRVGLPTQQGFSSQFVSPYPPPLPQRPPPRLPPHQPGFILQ
# UniProt O95785: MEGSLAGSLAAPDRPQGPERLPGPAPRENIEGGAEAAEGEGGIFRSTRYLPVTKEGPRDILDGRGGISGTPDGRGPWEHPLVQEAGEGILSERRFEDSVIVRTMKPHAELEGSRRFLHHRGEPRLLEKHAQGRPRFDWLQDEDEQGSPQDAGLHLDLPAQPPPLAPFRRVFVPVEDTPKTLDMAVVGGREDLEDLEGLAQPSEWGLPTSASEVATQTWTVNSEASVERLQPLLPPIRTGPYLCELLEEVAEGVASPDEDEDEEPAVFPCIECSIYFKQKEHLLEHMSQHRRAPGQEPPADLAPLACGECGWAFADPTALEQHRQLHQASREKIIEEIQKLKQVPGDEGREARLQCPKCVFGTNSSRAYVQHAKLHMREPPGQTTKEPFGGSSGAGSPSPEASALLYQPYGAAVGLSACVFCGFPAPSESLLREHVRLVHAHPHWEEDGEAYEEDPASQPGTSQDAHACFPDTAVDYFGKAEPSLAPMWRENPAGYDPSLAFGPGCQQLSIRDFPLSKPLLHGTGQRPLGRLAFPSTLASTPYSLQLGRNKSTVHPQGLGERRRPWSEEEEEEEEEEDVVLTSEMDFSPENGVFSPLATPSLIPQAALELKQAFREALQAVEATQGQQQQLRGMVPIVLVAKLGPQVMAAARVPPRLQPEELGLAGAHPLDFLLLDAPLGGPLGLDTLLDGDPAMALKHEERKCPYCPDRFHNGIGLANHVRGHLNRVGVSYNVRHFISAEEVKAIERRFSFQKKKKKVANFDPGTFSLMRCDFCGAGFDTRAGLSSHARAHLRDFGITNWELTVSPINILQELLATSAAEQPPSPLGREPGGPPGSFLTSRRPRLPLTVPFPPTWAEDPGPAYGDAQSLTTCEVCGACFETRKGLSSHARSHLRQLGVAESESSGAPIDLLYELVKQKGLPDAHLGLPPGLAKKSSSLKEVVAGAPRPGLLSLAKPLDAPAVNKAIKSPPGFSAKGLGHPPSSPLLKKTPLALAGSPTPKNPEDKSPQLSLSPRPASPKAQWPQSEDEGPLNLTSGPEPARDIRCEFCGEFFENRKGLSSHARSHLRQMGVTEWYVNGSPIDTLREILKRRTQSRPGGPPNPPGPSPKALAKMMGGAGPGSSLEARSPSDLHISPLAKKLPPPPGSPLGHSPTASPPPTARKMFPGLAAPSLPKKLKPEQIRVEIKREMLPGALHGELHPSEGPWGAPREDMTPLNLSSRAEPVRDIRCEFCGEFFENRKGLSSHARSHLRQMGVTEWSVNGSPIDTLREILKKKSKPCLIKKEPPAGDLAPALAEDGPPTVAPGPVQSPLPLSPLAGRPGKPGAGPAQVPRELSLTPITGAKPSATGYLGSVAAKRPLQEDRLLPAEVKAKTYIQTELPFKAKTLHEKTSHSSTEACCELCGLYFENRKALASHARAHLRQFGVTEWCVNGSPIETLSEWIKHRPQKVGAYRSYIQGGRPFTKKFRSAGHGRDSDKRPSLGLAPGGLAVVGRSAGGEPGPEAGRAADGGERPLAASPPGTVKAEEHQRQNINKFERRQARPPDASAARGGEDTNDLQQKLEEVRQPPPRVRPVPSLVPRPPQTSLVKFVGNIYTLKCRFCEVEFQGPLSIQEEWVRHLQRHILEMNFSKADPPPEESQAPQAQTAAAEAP
# UniProt Q9NRW7: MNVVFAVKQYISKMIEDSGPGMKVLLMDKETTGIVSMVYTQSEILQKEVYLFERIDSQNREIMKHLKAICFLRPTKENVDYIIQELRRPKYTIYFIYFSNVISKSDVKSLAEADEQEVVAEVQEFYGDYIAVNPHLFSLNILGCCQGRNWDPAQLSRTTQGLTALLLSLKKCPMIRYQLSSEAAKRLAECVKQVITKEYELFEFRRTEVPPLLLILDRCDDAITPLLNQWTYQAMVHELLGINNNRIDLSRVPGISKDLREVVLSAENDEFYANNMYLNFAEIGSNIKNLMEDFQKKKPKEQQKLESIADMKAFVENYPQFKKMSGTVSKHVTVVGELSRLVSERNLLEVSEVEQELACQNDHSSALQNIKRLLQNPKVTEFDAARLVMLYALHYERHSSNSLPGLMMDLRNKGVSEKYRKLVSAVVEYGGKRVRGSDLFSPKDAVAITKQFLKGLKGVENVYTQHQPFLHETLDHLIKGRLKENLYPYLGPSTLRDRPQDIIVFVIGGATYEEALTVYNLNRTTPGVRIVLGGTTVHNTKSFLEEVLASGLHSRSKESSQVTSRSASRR
# UniProt Q9NNW5: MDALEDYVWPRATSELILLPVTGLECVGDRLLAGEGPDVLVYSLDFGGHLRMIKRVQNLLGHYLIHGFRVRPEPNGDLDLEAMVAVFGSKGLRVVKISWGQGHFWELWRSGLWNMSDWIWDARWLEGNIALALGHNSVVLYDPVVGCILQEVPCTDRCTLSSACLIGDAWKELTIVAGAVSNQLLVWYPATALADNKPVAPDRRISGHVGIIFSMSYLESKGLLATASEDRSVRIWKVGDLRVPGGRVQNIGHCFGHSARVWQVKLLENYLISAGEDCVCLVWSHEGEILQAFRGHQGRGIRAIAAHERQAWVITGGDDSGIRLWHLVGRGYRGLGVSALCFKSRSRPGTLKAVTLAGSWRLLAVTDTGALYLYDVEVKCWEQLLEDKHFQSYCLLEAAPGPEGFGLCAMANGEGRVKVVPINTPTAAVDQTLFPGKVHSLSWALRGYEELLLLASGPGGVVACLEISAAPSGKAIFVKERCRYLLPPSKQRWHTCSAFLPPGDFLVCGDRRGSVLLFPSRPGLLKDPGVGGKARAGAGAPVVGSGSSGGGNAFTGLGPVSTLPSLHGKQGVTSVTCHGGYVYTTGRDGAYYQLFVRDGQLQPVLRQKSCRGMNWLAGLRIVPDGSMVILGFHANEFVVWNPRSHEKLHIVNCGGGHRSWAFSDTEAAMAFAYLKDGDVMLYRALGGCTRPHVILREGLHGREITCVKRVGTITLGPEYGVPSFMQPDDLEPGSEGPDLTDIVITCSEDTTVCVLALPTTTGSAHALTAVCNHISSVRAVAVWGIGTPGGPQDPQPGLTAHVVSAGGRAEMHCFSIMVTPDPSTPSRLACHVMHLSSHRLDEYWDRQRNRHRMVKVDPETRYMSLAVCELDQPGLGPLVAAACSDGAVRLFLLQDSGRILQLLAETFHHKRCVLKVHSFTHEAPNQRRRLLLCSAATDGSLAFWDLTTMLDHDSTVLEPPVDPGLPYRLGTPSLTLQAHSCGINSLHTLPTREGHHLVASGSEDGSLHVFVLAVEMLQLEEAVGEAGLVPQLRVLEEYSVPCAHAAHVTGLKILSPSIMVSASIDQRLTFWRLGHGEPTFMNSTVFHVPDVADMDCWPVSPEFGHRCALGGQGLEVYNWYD
# UniProt Q96MX6, whole entry, looked up: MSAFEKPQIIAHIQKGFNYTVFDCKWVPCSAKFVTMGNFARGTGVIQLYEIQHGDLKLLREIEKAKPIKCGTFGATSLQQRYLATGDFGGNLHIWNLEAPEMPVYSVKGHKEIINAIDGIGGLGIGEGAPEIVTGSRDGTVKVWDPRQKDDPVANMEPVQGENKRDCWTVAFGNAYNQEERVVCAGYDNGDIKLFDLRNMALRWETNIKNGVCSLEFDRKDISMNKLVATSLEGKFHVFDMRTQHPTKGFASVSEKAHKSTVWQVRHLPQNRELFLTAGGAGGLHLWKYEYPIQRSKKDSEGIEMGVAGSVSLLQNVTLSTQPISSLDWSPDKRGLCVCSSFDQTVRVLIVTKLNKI
# UniProt Q96GC9: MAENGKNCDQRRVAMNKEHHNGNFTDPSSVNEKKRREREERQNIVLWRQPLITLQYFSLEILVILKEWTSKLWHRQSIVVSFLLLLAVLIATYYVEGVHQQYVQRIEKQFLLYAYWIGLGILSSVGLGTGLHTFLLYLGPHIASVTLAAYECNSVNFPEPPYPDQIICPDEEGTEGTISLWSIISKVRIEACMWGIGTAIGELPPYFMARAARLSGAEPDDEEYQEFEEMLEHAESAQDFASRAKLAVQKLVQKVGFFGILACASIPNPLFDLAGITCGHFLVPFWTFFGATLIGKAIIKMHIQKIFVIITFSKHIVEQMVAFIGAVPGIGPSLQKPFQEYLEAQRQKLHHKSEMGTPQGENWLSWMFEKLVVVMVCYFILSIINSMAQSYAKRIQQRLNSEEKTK
# UniProt Q9Y484: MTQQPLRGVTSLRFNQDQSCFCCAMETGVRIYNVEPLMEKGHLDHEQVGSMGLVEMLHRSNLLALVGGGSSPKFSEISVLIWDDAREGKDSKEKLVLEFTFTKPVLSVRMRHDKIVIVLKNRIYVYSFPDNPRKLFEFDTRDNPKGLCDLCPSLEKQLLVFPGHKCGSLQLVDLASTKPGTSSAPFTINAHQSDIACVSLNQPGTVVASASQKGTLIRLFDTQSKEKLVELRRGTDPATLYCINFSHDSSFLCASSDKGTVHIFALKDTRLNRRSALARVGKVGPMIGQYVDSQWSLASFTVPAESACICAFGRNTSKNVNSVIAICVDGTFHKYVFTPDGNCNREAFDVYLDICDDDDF
# UniProt Q96S55: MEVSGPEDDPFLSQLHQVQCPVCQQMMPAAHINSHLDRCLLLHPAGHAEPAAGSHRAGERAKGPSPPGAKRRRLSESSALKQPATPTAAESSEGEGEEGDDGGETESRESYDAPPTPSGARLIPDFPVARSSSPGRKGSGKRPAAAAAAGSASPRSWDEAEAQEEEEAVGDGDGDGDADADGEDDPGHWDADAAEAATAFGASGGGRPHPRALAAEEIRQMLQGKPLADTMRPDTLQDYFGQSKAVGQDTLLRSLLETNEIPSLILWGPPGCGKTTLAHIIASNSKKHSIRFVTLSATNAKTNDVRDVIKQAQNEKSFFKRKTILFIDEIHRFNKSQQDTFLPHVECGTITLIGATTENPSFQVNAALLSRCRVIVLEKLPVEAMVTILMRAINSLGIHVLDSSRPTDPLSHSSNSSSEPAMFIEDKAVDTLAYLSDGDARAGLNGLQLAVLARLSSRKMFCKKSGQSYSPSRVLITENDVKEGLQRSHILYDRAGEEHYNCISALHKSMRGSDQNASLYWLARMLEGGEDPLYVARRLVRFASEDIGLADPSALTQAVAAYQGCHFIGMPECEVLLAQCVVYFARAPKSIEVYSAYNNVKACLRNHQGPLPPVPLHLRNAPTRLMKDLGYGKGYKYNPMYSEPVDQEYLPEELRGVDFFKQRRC
# Compound: C1COCCN1CCN2C3=CC=CC=C3N=C2NC(=O)C4=CC(=CC=C4)[N+](=O)[O-] [IRAK-1-4 Inhibitor I]
# Assay: log2 fold change, soluble protein after heating vs DMSO (PISA); higher = thermal stabilisation; K562 cells, 10 uM, 30 min; active = over 0.2 and 3.5 SD of the protein, either way, in both replicates (recomputed)
# Outline: (§1)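 Values are thermal stability changes relative to control samples and are taken from duplicates. They are stated as log2 fold changes. Before quantification by TMTpro 16plex LC-MS/MS with equalised channel sums, K562 cells at 2×10^6 cells/mL were treated with 10 μM compound for 30 min, heated in aliquots for 3 min across 48°C-58°C, pooled, extracted in PBS with 0.5% NP-40 at 4°C, and centrifuged at 21,000xg for 90 min to give the soluble supernatant.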
row,Target,log2 fold change
1,WDR45B (UniProt Q5MNZ6),inactive: 0.053
2,VWA5A (UniProt O00534),inactive: 0.128
3,VPS26B (UniProt Q4G0F5),inactive: 0.07
4,VPS41 (UniProt P49754),inactive: -0.002
5,WRAP53 (UniProt Q9BUR4),inactive: 0.008
6,WDR36 (UniProt Q8NI36),inactive: -0.046
7,WIPF2 (UniProt Q8TF74),inactive: 0.058
8,WDR44 (UniProt Q5JSH3),inactive: 0.018
9,VEZT (UniProt Q9HBM0),inactive: -0.041
10,VPS36 (UniProt Q86VN1),inactive: -0.037
11,WASF1 (UniProt Q92558),inactive: 0.022
12,VPS37B (UniProt Q9H9H4),inactive: 0.057
13,VRK3 (UniProt Q8IV63),inactive: 0.049
14,WDR59 (UniProt Q6PJI9),inactive: 0.002
15,WDR77 (UniProt Q9BQA1),inactive: -0.011
16,WIZ (UniProt O95785),inactive: -0.013
17,WDR12 (UniProt Q9GZL7),inactive: 0.03

row,Target,log2 fold change
1,VPS45 (UniProt Q9NRW7),inactive: -0.007
2,WDR3 (UniProt Q9UNX4),inactive: -0.155
3,VPS13A (UniProt Q96RL7),inactive: 0.057
4,WDR74 (UniProt Q6RFH5),inactive: -0.125
5,WDR6 (UniProt Q9NNW5),inactive: -0.038
6,VIM (UniProt P08670),inactive: -0.136
7,WDFY1 (UniProt Q8IWB7),inactive: 0.053
8,WDR92 (UniProt Q96MX6),inactive: -0.022
9,"WDR26, A0A499FIZ0",inactive: -0.017
10,WDR73 (UniProt Q6P4I2),inactive: 0
11,"VKORC1L1, A0A3B3ISV4",inactive: -0.044
12,VMP1 (UniProt Q96GC9),inactive: -0.009
13,VPS29 isoform 2 (UniProt Q9UBQ0),inactive: 0.057
14,WDR5 (UniProt P61964),inactive: -0.072
15,WDR45 (UniProt Q9Y484),inactive: 0.03
16,WRNIP1 (UniProt Q96S55),inactive: -0.049
17,WARS (UniProt P23381),inactive: 0.096

# Compound: C=CC(=O)N1CCC[C@@H](n2nc(-c3ccc(Oc4ccccc4)cc3)c3c(N)ncnc32)C1 [ibrutinib]
# Assay: as above
# Outline: as §1
row,Target,log2 fold change
1,WDR45B (UniProt Q5MNZ6),inactive: 0.02
2,VWA5A (UniProt O00534),inactive: -0.005
3,VPS26B (UniProt Q4G0F5),inactive: -0.03
4,VPS41 (UniProt P49754),inactive: -0.033
5,WRAP53 (UniProt Q9BUR4),inactive: 0.033
6,WDR36 (UniProt Q8NI36),inactive: -0.036
7,WIPF2 (UniProt Q8TF74),inactive: 0.005
8,WDR44 (UniProt Q5JSH3),inactive: 0.022
9,VEZT (UniProt Q9HBM0),inactive: 0.197
10,VPS36 (UniProt Q86VN1),inactive: -0.015
11,WASF1 (UniProt Q92558),inactive: 0
12,VPS37B (UniProt Q9H9H4),inactive: 0
13,VRK3 (UniProt Q8IV63),inactive: 0.016
14,WDR59 (UniProt Q6PJI9),inactive: 0.057
15,WDR77 (UniProt Q9BQA1),inactive: 0.037
16,WIZ (UniProt O95785),inactive: 0.014
17,WDR12 (UniProt Q9GZL7),inactive: -0.011

row,Target,log2 fold change
1,VPS45 (UniProt Q9NRW7),inactive: 0.115
2,WDR3 (UniProt Q9UNX4),inactive: 0.063
3,VPS13A (UniProt Q96RL7),inactive: -0.024
4,WDR74 (UniProt Q6RFH5),inactive: 0.04
5,WDR6 (UniProt Q9NNW5),inactive: 0.016
6,VIM (UniProt P08670),inactive: 0.2
7,WDFY1 (UniProt Q8IWB7),inactive: -0.022
8,WDR92 (UniProt Q96MX6),inactive: 0.041
9,"WDR26, A0A499FIZ0",inactive: -0.014
10,WDR73 (UniProt Q6P4I2),inactive: 0.006
11,"VKORC1L1, A0A3B3ISV4",inactive: -0.033
12,VMP1 (UniProt Q96GC9),inactive: -0.014
13,VPS29 isoform 2 (UniProt Q9UBQ0),inactive: -0.011
14,WDR5 (UniProt P61964),inactive: 0.022
15,WDR45 (UniProt Q9Y484),inactive: -0.018
16,WRNIP1 (UniProt Q96S55),inactive: -0.144
17,WARS (UniProt P23381),inactive: 0.028

# Compound: CC(=O)c1cnc2ccc(-c3cc(Cl)c(O)c(Cl)c3)nc2c1N[C@H]1CC[C@H](CN(C)C)CC1
# Assay: as above
# Outline: as §1
row,Target,log2 fold change
1,WDR45B (UniProt Q5MNZ6),inactive: 0.015
2,VWA5A (UniProt O00534),inactive: -0.023
3,VPS26B (UniProt Q4G0F5),inactive: -0.024
4,VPS41 (UniProt P49754),inactive: -0.019
5,WRAP53 (UniProt Q9BUR4),inactive: -0.089
6,WDR36 (UniProt Q8NI36),inactive: 0.053
7,WIPF2 (UniProt Q8TF74),inactive: -0.027
8,WDR44 (UniProt Q5JSH3),inactive: -0.005
9,VEZT (UniProt Q9HBM0),inactive: 0.015
10,VPS36 (UniProt Q86VN1),inactive: -0.018
11,WASF1 (UniProt Q92558),inactive: -0.156
12,VPS37B (UniProt Q9H9H4),inactive: 0.025
13,VRK3 (UniProt Q8IV63),inactive: -0.239
14,WDR59 (UniProt Q6PJI9),inactive: -0.033
15,WDR77 (UniProt Q9BQA1),inactive: -0.002
16,WIZ (UniProt O95785),inactive: -0.187
17,WDR12 (UniProt Q9GZL7),inactive: -0.044

row,Target,log2 fold change
1,VPS45 (UniProt Q9NRW7),inactive: -0.044
2,WDR3 (UniProt Q9UNX4),inactive: 0.029
3,VPS13A (UniProt Q96RL7),inactive: -0.029
4,WDR74 (UniProt Q6RFH5),inactive: 0.189
5,WDR6 (UniProt Q9NNW5),inactive: 0.006
6,VIM (UniProt P08670),inactive: 0.123
7,WDFY1 (UniProt Q8IWB7),inactive: 0.028
8,WDR92 (UniProt Q96MX6),inactive: -0.04
9,"WDR26, A0A499FIZ0",inactive: 0.059
10,WDR73 (UniProt Q6P4I2),inactive: -0.026
11,"VKORC1L1, A0A3B3ISV4",inactive: -0.041
12,VMP1 (UniProt Q96GC9),inactive: -0.024
13,VPS29 isoform 2 (UniProt Q9UBQ0),inactive: 0.022
14,WDR5 (UniProt P61964),inactive: 0.032
15,WDR45 (UniProt Q9Y484),inactive: -0.025
16,WRNIP1 (UniProt Q96S55),inactive: -0.362
17,WARS (UniProt P23381),inactive: 0.026
